In article PMC13323110, “Structure and substrate recognition by the bacterial twin-arginine translocation (Tat) core complex” (Nature Microbiology, 2026):
No constants are given. Whether binding was seen depends on the method and setting. Binding seen in cells or lysates may run through a third protein. Some binding calls cover weakened binding; strength is not graded here. Tags and fused reporters may be left off the sequences shown.

Molecular target: T1, E. coli TatC with C-terminal Twin-Strep tag, expressed from a tatABC plasmid (Escherichia coli) (UniProt P69423)
T1 sequence: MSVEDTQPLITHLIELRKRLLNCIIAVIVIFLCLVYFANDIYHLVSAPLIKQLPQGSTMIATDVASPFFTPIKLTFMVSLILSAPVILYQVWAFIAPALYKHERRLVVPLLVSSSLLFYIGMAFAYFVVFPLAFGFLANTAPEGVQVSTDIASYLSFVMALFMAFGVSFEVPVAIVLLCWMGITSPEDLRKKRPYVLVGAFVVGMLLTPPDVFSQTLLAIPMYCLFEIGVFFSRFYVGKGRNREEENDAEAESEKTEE
Assay: pull-down; E. coli TatAHisTatBC_(strep) solubilised in GDN, purified successively by the strep tag on TatC and the His tag on TatA; SDS-PAGE, Coomassie

binding: binds
B1: E. coli TatA with an inserted ALFA-His tag (natural protein, Escherichia coli, UniProt P69428 1-89, looked up)
chain: MGGISIWQLLIIAVIVVLLFGTKKLGSIGSDLGASIKGFKKAMSDDEPKQDKTSQDADFTAKTIADKQADTNQEQAKTEDAKRHDKEQV
notes: TatA of Escherichia coli; also called TatA_(ALFA); TatA_(ALFA,His); not shown: ALFA, internal (in the cytoplasmic part of TatA), kept
